Source: publication PMC11392244, “Characterization of a unique catechol-O-methyltransferase as a molecular drug target in parasitic filarial nematodes” (PLOS Neglected Tropical Diseases, 2024)
The source's definition of the ratio is not given here.

Test system: D. immitis microfilariae
Assay: In vitro efficacy against live D. immitis microfilariae (motility, completely immotile %)
Assay type: cell-based, Dirofilaria immitis

| Compound | EC50 fold higher than ivermectin [fold] | also measured |
| --- | --- | --- |
| CO[C@@]12[C@H](COC(N)=O)C3=C(C(=O)C(C)=C(N)C3=O)N1C[C@H]1[C@@H]2N1C (stereo partly shown) [NSC56410] | 1.8 |  |
| CO[C@@H]1/C=C\O[C@]2(C)Oc3c(C)c(O)c4c(O)c(c(CN(C)C)c(O)c4c3C2=O)NC(=O)/C(C)=C\C=C[C@@H](C)[C@@H](O)[C@H](C)[C@@H](O)[C@H](C)[C@H](OC(C)=O)[C@@H]1C [NSC145612] | 1.8 |  |
| CO[C@@H]1/C=C/O[C@@]2(C)Oc3c(C)c(O)c4c(c3C2=O)C(=N[C@@H]2CC[C@@H](O)O[C@H]2C)C=C(NC(=O)/C(C)=C\C(=O)[C@@H]2C[C@@H]2[C@H](O)[C@@H](C)[C@@H](O)[C@@H](C)[C@H](OC(C)=O)[C@@H]1C)C4=O [NSC177383, tolypomycin-Y] |  | EC50 fold lower than ivermectin: about 1.5 fold |
| Ivermectin [reference compound] |  | Selectivity Index (SI): 2.1 |
